Results published in the supplement of paper PMC10849652.
Some of the results follow.

Protein sequences, listed by entry. Tags and fused reporters are not part of them. Lines headed by an entry give the natural chain unless they say otherwise; changes in a name come on top.
UniProt Q6IAA8, whole entry, looked up: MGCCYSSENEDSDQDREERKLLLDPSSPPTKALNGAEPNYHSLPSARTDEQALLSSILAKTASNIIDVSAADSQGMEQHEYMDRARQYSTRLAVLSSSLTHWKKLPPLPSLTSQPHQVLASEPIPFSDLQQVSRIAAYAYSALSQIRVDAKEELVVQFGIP
UniProt Q07666, whole entry, looked up: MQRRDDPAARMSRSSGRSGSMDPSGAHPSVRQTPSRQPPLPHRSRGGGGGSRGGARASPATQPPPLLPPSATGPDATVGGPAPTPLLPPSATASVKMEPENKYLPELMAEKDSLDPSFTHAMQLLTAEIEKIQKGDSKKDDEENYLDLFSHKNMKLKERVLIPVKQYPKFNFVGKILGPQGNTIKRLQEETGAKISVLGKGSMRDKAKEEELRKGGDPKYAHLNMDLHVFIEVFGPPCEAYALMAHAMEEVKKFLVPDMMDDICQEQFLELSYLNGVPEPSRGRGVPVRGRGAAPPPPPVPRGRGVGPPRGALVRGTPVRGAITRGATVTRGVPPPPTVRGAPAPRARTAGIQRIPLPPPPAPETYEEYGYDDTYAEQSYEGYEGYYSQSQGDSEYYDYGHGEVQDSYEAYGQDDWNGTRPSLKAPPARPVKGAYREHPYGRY
UniProt Q9UN81: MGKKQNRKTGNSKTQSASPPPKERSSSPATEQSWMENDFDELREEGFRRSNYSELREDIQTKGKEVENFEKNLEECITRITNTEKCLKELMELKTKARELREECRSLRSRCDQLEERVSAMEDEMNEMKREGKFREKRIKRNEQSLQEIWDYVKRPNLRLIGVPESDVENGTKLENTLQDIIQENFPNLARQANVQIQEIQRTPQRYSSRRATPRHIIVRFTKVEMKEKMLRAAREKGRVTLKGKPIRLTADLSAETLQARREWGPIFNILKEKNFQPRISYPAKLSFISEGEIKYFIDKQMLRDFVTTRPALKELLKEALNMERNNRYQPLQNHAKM
UniProt Q4G0J3: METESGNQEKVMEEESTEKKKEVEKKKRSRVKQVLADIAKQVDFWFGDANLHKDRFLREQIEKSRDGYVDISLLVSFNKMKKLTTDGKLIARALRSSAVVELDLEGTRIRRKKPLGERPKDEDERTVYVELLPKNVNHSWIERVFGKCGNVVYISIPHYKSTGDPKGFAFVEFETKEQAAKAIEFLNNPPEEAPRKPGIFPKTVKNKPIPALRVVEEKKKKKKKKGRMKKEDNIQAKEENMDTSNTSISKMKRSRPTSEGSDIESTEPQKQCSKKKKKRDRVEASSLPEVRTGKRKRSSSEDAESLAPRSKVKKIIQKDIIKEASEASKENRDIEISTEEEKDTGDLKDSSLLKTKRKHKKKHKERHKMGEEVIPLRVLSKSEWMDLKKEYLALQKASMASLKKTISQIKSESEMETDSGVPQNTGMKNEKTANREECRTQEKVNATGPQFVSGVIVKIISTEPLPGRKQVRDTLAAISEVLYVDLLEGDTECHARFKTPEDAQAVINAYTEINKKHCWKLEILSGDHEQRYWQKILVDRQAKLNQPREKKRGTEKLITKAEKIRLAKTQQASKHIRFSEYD
UniProt Q9NSK0: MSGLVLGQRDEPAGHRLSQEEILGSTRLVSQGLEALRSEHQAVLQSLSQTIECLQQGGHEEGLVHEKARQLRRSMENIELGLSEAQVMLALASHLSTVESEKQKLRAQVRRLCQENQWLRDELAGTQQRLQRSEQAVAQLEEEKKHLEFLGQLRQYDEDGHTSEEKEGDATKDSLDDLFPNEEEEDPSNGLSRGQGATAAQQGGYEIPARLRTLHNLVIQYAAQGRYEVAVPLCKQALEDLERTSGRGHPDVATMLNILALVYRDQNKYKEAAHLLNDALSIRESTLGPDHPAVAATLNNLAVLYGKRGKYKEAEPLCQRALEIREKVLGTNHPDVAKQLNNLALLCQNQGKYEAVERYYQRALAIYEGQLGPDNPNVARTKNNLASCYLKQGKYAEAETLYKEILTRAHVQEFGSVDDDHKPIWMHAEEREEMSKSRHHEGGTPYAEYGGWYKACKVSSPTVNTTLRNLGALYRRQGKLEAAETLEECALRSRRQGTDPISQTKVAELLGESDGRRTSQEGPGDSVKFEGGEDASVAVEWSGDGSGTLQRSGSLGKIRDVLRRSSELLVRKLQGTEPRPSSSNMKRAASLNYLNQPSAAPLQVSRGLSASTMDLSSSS
UniProt Q9H9P8: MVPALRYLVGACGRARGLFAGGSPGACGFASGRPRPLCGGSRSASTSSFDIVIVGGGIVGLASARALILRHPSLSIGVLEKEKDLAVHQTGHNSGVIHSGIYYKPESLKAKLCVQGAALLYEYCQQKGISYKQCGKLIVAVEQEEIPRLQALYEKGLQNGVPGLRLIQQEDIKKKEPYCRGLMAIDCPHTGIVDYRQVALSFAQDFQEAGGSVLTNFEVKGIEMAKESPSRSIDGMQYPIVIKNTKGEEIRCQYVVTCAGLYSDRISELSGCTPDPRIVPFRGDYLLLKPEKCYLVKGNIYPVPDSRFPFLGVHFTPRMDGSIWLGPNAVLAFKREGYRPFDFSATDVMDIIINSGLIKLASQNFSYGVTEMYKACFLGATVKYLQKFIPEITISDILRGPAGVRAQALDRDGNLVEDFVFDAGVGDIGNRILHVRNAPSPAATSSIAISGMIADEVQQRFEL
UniProt Q8IVT5: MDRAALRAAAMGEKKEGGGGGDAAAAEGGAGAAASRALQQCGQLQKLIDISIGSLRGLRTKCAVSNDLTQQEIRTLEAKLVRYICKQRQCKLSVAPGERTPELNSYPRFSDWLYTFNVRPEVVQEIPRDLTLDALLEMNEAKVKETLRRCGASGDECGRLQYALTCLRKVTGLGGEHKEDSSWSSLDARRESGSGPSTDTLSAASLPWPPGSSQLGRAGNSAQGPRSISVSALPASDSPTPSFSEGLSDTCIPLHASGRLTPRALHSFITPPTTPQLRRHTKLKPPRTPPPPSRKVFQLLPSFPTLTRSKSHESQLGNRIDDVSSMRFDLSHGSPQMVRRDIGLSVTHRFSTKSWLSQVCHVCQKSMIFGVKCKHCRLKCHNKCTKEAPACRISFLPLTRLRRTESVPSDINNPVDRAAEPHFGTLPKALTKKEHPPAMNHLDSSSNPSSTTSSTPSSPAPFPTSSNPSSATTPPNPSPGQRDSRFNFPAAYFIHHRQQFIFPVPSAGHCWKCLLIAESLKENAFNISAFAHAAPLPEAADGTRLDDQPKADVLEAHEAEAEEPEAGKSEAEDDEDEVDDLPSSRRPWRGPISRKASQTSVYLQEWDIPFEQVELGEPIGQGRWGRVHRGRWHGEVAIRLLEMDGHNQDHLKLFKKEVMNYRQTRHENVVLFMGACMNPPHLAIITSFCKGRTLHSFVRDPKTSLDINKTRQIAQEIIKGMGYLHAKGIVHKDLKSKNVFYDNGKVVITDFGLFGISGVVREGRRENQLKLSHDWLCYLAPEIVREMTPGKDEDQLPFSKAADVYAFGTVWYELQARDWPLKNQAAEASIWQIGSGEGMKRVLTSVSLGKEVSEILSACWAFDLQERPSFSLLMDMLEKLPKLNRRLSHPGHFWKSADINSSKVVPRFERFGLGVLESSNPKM
UniProt O43813, whole entry, looked up: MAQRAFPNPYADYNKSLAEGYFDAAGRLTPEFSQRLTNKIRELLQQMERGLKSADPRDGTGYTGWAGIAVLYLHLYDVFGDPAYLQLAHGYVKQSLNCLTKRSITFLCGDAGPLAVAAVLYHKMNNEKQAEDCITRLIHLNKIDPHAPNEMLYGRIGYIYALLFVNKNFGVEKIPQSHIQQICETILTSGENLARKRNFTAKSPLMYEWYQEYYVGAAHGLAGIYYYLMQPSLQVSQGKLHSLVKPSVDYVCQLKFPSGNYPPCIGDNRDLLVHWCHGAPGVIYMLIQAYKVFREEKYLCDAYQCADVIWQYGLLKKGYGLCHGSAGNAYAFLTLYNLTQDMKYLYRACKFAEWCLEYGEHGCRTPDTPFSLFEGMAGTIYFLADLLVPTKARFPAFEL
UniProt Q9Y664: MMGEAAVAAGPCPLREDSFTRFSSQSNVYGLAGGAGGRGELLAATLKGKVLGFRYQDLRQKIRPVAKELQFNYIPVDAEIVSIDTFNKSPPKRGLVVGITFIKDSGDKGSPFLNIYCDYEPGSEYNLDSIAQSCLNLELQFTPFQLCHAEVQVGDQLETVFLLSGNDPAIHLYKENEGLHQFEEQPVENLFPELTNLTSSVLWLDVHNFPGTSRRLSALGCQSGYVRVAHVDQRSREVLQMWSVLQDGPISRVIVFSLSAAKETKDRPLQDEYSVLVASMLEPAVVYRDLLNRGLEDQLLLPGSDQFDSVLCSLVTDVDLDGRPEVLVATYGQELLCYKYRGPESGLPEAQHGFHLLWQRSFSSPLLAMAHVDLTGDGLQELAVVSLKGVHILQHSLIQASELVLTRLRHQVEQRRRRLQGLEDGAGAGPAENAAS
UniProt Q9NS87: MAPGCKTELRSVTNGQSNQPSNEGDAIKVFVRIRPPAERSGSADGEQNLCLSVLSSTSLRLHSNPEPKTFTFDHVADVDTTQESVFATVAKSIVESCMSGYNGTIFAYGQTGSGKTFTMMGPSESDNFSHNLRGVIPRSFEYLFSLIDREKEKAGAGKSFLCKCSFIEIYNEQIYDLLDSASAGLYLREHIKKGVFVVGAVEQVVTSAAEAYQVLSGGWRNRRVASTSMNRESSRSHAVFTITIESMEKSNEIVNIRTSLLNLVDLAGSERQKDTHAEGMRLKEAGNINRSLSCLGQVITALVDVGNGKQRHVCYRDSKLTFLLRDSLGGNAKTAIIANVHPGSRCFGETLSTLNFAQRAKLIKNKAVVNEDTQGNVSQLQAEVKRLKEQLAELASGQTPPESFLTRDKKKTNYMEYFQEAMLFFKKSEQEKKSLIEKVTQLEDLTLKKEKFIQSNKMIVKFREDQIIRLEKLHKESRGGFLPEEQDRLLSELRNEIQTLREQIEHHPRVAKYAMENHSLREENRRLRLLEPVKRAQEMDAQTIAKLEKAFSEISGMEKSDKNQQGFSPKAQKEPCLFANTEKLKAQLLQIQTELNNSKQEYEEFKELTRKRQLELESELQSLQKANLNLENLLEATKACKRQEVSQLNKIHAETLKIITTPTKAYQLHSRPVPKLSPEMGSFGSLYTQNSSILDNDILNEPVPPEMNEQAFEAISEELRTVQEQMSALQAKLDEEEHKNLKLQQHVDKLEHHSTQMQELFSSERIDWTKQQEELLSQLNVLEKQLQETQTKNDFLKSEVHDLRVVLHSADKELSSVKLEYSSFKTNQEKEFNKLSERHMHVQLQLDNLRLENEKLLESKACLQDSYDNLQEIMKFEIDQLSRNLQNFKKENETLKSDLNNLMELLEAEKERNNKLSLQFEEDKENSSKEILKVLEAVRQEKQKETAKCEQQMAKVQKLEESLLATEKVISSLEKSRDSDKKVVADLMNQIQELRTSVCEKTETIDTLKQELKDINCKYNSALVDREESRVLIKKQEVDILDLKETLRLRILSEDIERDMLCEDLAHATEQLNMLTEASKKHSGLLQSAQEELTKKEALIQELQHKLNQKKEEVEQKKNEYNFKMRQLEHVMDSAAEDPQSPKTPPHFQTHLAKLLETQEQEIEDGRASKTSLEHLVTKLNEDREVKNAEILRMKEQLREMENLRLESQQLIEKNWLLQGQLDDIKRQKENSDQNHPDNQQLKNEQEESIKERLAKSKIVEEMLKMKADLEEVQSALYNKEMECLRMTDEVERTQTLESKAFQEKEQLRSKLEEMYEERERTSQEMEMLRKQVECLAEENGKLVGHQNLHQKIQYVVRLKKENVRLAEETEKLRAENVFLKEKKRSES
UniProt Q9Y496, whole entry, looked up: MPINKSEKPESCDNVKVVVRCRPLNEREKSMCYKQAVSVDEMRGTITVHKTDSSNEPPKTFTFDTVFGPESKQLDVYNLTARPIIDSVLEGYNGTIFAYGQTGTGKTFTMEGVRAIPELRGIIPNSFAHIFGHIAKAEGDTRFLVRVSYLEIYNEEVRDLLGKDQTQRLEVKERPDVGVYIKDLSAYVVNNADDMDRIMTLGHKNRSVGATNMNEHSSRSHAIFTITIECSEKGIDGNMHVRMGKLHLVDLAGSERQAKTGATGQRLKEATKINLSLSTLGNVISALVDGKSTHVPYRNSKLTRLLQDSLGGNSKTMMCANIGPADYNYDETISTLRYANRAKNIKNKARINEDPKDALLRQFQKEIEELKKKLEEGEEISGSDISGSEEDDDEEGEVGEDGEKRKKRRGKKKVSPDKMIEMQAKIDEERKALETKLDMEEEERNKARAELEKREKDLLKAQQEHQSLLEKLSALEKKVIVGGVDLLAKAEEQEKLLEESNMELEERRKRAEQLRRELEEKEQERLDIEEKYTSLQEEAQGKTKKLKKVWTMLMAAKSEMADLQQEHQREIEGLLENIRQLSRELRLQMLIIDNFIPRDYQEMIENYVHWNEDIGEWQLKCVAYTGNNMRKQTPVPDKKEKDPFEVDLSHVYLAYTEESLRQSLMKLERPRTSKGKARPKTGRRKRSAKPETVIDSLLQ

Compound: CS(=O)(=O)CCNCc1ccc(-c2ccc3ncnc(Nc4ccc(OCc5cccc(F)c5)c(Cl)c4)c3c2)o1 [lapatinib]
Assay: log2 fold change, soluble protein after heating vs DMSO (PISA); higher = thermal stabilisation; K562 lysate, 10 uM; active = over 0.2 and 3.5 SD of the protein, either way, in both replicates (recomputed)
How it was run: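 Soluble protein was defined as the supernatant remaining after 21,000xg for 90 min, following pooling of heated aliquots and adjustment to 0.5% NP-40 at 4°C. Before that, crude K562 extract at 1 mg/mL protein in PBS pH 7.4 with 1 mM MgCl2 was treated with 10 μM compound for 30 min and heated for 3 min across 48°C-58°C. Quantification used TMTpro 16plex LC-MS/MS with channel sums equalised, and values are log-two fold changes in thermal stability relative to solvent controls from duplicates.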

log2 fold change, inactive:
LAMTOR1 (UniProt Q6IAA8) 0.034
KHK isoform 2 (UniProt P50053) -0.066
KNL1 (UniProt Q8NG31) 0.007
LAMB1 (UniProt P07942) -0.016
KIF4A (UniProt O95239) 0.007
KHDRBS1 (UniProt Q07666) -0.035
L1RE1 (UniProt Q9UN81) 0.065
LARP7 isoform 3 (UniProt Q4G0J3) -0.008
KLC4 isoform 3 (UniProt Q9NSK0) -0.002
L2HGDH (UniProt Q9H9P8) -0.023
KSR1 (UniProt Q8IVT5) -0.107
KIAA0930 isoform 2 (UniProt Q6ICG6) -0.068
LACTB2 (UniProt Q53H82) 0.024
LANCL1 (UniProt O43813) -0.006
LAMP2 (UniProt P13473) 0.024
KHSRP (UniProt Q92945) 0.002
KDM8 isoform 3 (UniProt Q8N371) -0.013
KLHL18 (UniProt O94889) -0.024
KPTN (UniProt Q9Y664) -0.009
KIF15 (UniProt Q9NS87) -0.02
KYAT3 (UniProt Q6YP21) -0.011
KIF3A (UniProt Q9Y496) -0.12

Two successive records from above, for reference:
log2 fold change, inactive:
KIF4A (UniProt O95239) 0.007
KHDRBS1 (UniProt Q07666) -0.035
